Experimental data as given in PubChem BioAssay AID2551 (National Center for Advancing Translational Sciences (NCATS), 2010).
The whole screen tested about 310,000 compounds, of which about 17,000 (5.5%) were called active. Inconclusive means that the source gave no clear call. Such entries were picked first, then a sample of the others. The call rests on the fitted dose curve; in most records, active means well fitted inhibition curve with a large enough effect; inconclusive means small, poorly fitted or top-dose-only effect, or effect the other way; inactive means no such curve, though single readings can be large or run the other way. Potencies beside an inconclusive call are fits to weak or partial responses and may not hold up.

Amino acid sequences for entries named in this document (tags omitted). A change or cut given only in a name is not applied to a line headed by its entry.
UniProt P51450: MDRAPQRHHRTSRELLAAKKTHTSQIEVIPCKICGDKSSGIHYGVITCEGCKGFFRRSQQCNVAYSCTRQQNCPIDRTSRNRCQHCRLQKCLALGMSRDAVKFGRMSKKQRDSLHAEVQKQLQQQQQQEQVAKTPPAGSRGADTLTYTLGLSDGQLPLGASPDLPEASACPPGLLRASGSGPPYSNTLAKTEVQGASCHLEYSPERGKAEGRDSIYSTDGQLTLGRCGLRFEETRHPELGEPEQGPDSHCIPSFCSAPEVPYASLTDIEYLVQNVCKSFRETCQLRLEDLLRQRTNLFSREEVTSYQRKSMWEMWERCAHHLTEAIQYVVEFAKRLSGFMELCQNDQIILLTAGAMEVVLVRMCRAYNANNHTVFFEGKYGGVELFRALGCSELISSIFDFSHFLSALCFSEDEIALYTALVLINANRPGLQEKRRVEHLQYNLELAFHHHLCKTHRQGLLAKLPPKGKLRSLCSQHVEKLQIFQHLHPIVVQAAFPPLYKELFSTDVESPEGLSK

target: Nuclear receptor ROR-gamma (Mus musculus) (UniProt P51450); assay: qHTS for inhibitors of ROR gamma transcriptional activity; settings: Drosophila S2 Gal4-RORgamma UAS-luciferase reporter, 20 h; activity change, negative = inhibition: at 53.6 µM (top of the series); further: nearly all actives have a fitted effect of over 60% in size
In short: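 Stably transfected Drosophila Schneider cells are the test system, with ROR gamma fused to Gal4 and luciferase under UAS control; luminescence is read after 20 hr of 700 uM copper sulfate induction at ambient temperature.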
On the % scale 0 is the no-effect control and ±100 the full control effect; potency means the concentration at half of the fitted maximal effect.

Structure (SMILES)	Potency	activity change, negative = inhibition
Cc1ccccc1Nc1sc(C(=O)Nc2cccc(Cl)c2)c(N)c1C(N)=O	inconclusive: 20 µM [activator, single point]	–
CC1(C)Cc2cccc(OCC(=O)N3CCN(c4ccc([N+](=O)[O-])cc4)CC3)c2O1	inconclusive: 22.4 µM [activator, single point]	–
Cc1ccc(/C=N/NC(=O)c2nnn(-c3nonc3N)c2C(C)C)o1	inconclusive: 28.2 µM [inhibitor, single point]	–
CCOC(=O)C1=C(Cc2ccc(F)cc2)C(=O)c2ccccc2C1=O	active: 14.1 µM	–
CCOC(=O)c1c(NC(=O)CC2SC(N)=NC2=O)sc(C)c1C (stereo unspecified)	inconclusive: 12.6 µM [activator, single point]	–
COc1ccc(-n2c(SCc3cn4c(C)cccc4n3)nc3ccccc3c2=O)cc1OC	inconclusive: 10 µM [inhibitor, single point]	–
O=C(Nc1ccc(-c2csc(Nc3ccccc3)n2)cc1)c1cc([N+](=O)[O-])cc(C(F)(F)F)c1	inconclusive: 15.8 µM [activator, single point]	–
CCOc1ccc(/C=C/c2nc(C#N)c(NCCCOC)o2)cc1	inconclusive: 12.6 µM [activator, partial curve, poor fit]	–
CC1CN(C(=S)Nc2cccc(Cl)c2)CC(C)O1 (stereo unspecified)	inconclusive: 14.1 µM [inhibitor, single point]	–
COCCN(C(=O)COC(=O)CCC(=O)c1ccc(C)cc1)c1c(N)n(Cc2ccccc2)c(=O)[nH]c1=O	inconclusive: 2 µM [activator, partial curve, poor fit]	–
Cc1ccc(NC(=O)N2CCC(O)(c3ccc(Cl)cc3)CC2)cc1	inconclusive: 14.1 µM [activator, single point]	–
CC(Nc1ccc(Cl)c(Cl)c1)C(=O)NN (stereo unspecified)	–	inactive: 7.86%
COc1ccc(/C([O-])=C(/C(=S)Nc2ccc(C)c(C)c2)n2c[n+](C)c3ccccc32)cc1OC	inconclusive: 17.8 µM [inhibitor, single point]	–
CC(C)(C)OC(=O)NCCCC[C@H](NC(=O)c1[nH]cnc1C(=O)Nc1ccc(CNC(=O)OC(C)(C)C)cc1)C(=O)OC(C)(C)C	inconclusive: 35.5 µM [inhibitor, single point]	–
COc1cc(OC)c(NC2=NCCCCC2)cc1Cl	–	inactive: -8.62%
COc1ccc(C(c2nnnn2C(C)(C)C)N2CCN(c3nc4ccccc4s3)CC2)cc1OC (stereo unspecified)	inconclusive: 35.5 µM [activator, single point]	–
Cc1cnc(NC(=O)CSc2ccccc2)s1	inconclusive: 11.2 µM [activator, partial curve]	–
COc1ccc(C(=O)N/N=C/c2ccc(SC)cc2)cc1	inconclusive: 22.4 µM [inhibitor, single point]	–
CN(C)c1ccc(C(CC(=O)c2ccccc2)C2CCCCC2=O)cc1 (stereo unspecified)	inconclusive: 1.41 µM [inhibitor, partial curve, poor fit]	–
O=c1c2ccccc2c(/C=N/c2nnc(Cc3ccccc3)s2)c(O)n1-c1ccc(Cl)cn1	inconclusive: 35.5 µM [inhibitor, single point]	–

Structure (SMILES)	Potency	activity change, negative = inhibition
Cc1ccc(C(=O)/C=C/c2ccc3c(c2)OCO3)o1	inconclusive: 3.98 µM [activator, single point]	–
c1ccc(OCCSc2nnc3sc4ccccc4n23)cc1	active: 11.2 µM	–
CCOC(=O)N1CCN(c2cc(N)c([N+](=O)[O-])cc2F)CC1	inconclusive: 31.6 µM [activator, single point]	–
Nc1[nH]n(-c2ccccc2)c(=O)c1N=Nc1ccc2c(c1)OCCO2	inconclusive: 12.6 µM [inhibitor, single point]	–
COc1ccc(N=CC2=C(O)CC(C)(C)CC2=O)cc1OC	–	inactive: -2.49%
CC(CN1CCOCC1)OC(=O)C(c1ccccc1)c1ccccc1 (stereo unspecified)	–	inactive: 1.76%
N#CC1=C2SCN(Cc3ccccc3)CN2C(=O)CC1c1ccccc1F (stereo unspecified)	inconclusive: 22.4 µM [inhibitor, partial curve, poor fit]	–
COc1cccc(-c2csc(N3CCN(C(=S)NCC(C)C)CC3)n2)c1	inconclusive: 12.6 µM [inhibitor, single point]	–
Cc1cc(C(=O)NCCc2ccccc2)c2cc(F)ccc2n1	inconclusive: 11.2 µM [activator, single point]	–
N#Cc1ccccc1-c1ccc2ncnc(NCc3cccs3)c2c1	inconclusive: 20 µM [activator, single point]	–
O=C(CN1CCC(n2nnc3cc(F)ccc32)CC1)NCCc1ccccc1	inconclusive: 10 µM [activator, single point]	–
COc1ccc(N2C(=O)CC(N(CCc3ccc(OC)c(OC)c3)C(=S)Nc3ccccc3)C2=O)cc1 (stereo unspecified)	inconclusive: 31.6 µM [inhibitor, single point]	–
CN(C)CC(=O)c1ccc(-c2ccccc2)cc1	inconclusive: 14.1 µM [inhibitor, single point]	–
CCCNC(=O)OC[C@H]1O[C@H](CCO/N=C/[C@@H](NS(=O)(=O)c2ccc(C)cc2)[C@H](C)/C=C/CC(=O)OC)C=C[C@@H]1Oc1ccc(OC)cc1	inconclusive: 12.6 µM [activator, partial curve]	–
CN(Cc1nc(CCc2ccccc2)no1)Cc1cccs1	inconclusive: 12.6 µM [activator, single point]	–
COc1ncc2nc(C)c(=O)n(Cc3ccc(F)cc3)c2n1	–	inactive: 27.9%
CCOc1ccc(/C=C2\CCC(C3CCCC3)C2=O)cc1 (stereo unspecified)	–	inconclusive: 45.5% [activator]
Cc1ccc(Cl)cc1NC(=O)CSc1nnc(C)n1-c1ccccc1	active: 3.98 µM	–
CCN(CC)S(=O)(=O)c1ccc(Cl)c(C(=O)OCC(=O)c2c(N)n(C)c(=O)n(C)c2=O)c1	inconclusive: 10 µM [activator, partial curve]	–
Cc1ccc(CCCNC(=O)C2CCC(=O)N(Cc3cccc(F)c3)C2)cc1 (stereo unspecified)	–	inactive: 33.2%

Copied from the list.
Potency with N#CC1=C2SCN(Cc3ccccc3)CN2C(=O)CC1c1ccccc1F (stereo unspecified) reads inconclusive: 22.4 µM [inhibitor, partial curve, poor fit]
Potency with CCOC(=O)N1CCN(c2cc(N)c([N+](=O)[O-])cc2F)CC1 reads inconclusive: 31.6 µM [activator, single point]
